Assay results: the supplement of paper PMC4604168 (melanoma cell lines)
The other results are listed elsewhere or left out. Many values rest on one well or one pass, so single values are uncertain.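 Imaging used 1,536-well plates; nuclei positive for cleaved PARP by antibody were divided by total DNA-stained nuclei to yield the apoptosis fraction. Doses for screening kept most cells viable, and cell lines differ markedly in resting and induced cleaved-PARP levels.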

Assays:
Experiment in all cases: cleaved PARP positive nuclei fraction relative to DMSO control; melanoma cells; higher = more apoptosis
Conditions in all cases: library dose: low library concentration; 72 h
[1] = test system: WM115
[2] = test system: WM1716
[3] = test system: WM1745
[4] = test system: WM3526
[5] = test system: WM3619
[6] = test system: WM451Lu

Row | Structure (SMILES) | cleaved PARP positive nuclei fraction [1] | cleaved PARP positive nuclei fraction [2] | cleaved PARP positive nuclei fraction [3] | cleaved PARP positive nuclei fraction [4] | cleaved PARP positive nuclei fraction [5] | cleaved PARP positive nuclei fraction [6]
1 | Cn1sc(=O)n(Cc2ccccc2)c1=O + Cc1nc(Nc2ncc(C(=O)Nc3c(C)cccc3Cl)s2)cc(N2CCN(CCO)CC2)n1 [dasatanib] (first compound 0.4 µM, partner dose 0.004 µM) | 73.7% | 44.6% | 114% | 173% | 92.2% | 196%
2 | CS(=O)(=O)c1ccc(C(=O)Nc2ccc(Cl)c(-c3ccccn3)c2)c(Cl)c1 [vismodegib] + CO[C@@H]1[C@H](N(C)C(=O)c2ccccc2)C[C@H]2O[C@]1(C)n1c3ccccc3c3c4c(c5c6ccccc6n2c5c31)C(=O)NC4 [Midostaurin] (first compound 1 µM, partner dose 0.08 µM) | 126% | 85.2% | 103% | 52% | 88.3% | 86.3%
3 | NC(=O)c1ccc(N(C(N)=O)c2c(F)cccc2F)nc1-c1ccc(F)cc1F + CC(=O)c1c(C)c2cnc(Nc3ccc(N4CCNCC4)cn3)nc2n(C2CCCC2)c1=O [palbociclib] (first compound 0.4 µM, partner dose 0.04 µM) | 91% | 49.6% | 114% | 93.1% | 165% | 32%
4 | Cn1sc(=O)n(Cc2ccccc2)c1=O + Oc1cc(-c2nc(-c3ccccc3)[nH]c2-c2ccncc2)ccc1Cl [L779450] (first compound 0.4 µM, partner dose 0.2 µM) | 101% | 75% | 84.8% | 80.8% | 96.2% | 97.8%
5 | C[C@]1(O)C[C@@H](c2nc(-c3ccc4ccc(-c5ccccc5)nc4c3)c3c(N)nccn32)C1 + c1cc(-c2cnn3cc(-c4ccc(OCCN5CCCCC5)cc4)cnc23)ccn1 [Dorsomorphin] (first compound 0.4 µM, partner dose 0.4 µM) | 110% | 123% | 111% | 165% | 112% | 521%
6 | CCCCCCCCc1ccc(CCC(N)(CO)CO)cc1 [fingolimod] + COc1ccc(COc2ccc(Cc3cnc(N)nc3N)cc2OC)cc1 [GW2580] (first compound 2 µM, partner dose 1 µM) | 81.5% | 130% | 99.6% | 83.6% | 94.4% | 55.4%
7 | C[C@]1(O)C[C@@H](c2nc(-c3ccc4ccc(-c5ccccc5)nc4c3)c3c(N)nccn32)C1 + CC1(C)NC(=O)N(c2ccc([N+](=O)[O-])c(C(F)(F)F)c2)C1=O [nilutamide] (first compound 0.4 µM, partner dose 1 µM) | 74.5% | 84.5% | 107% | 25.8% | 66.7% | 136%
8 | CCCCCCCCc1ccc(CCC(N)(CO)CO)cc1 [fingolimod] + O=C1NC(=O)/C(=C/c2ccc(-c3ccc(F)cc3O)o2)S1 [AS252424] (first compound 2 µM, partner dose 1 µM) | 167% | 56.4% | 133% | 172% | 103% | 133%
9 | CC(=O)O[C@@]12CO[C@@H]1C[C@H](O)[C@@]1(C)C(=O)[C@H](O)C3=C(C)[C@@H](OC(=O)[C@H](O)[C@@H](NC(=O)OC(C)(C)C)c4ccccc4)C[C@@](O)([C@@H](OC(=O)c4ccccc4)[C@H]21)C3(C)C [Docetaxel] + COc1cc(Nc2ncc(F)c(Nc3ccc4c(n3)NC(=O)C(C)(C)O4)n2)cc(OC)c1OC [Tamatinib] (first compound 0.0001 µM, partner dose 0.4 µM) | 346% | 1390% | 313% | 144% | 163% | 239%
10 | CC1(C)CCC(c2ccc(Cl)cc2)=C(CN2CCN(c3ccc(C(=O)NS(=O)(=O)c4ccc(N[C@H](CCN5CCOCC5)CSc5ccccc5)c(S(=O)(=O)C(F)(F)F)c4)cc3)CC2)C1 + Nc1nc(F)nc2c1ncn2[C@@H]1O[C@H](CO)[C@@H](O)[C@@H]1O [fludarabine] (first compound 0.4 µM, partner dose 0.2 µM) | 4170% | 146% | 649% | 1890% | 156% | 416%
11 | NC(=O)c1ccc(N(C(N)=O)c2c(F)cccc2F)nc1-c1ccc(F)cc1F + Cn1cc(/C=C2\C(=O)Nc3cccnc32)c2ccccc21 [GW441756] (first compound 0.4 µM, partner dose 0.4 µM) | 152% | 188% | 94.8% | 69.3% | 90.2% | 31.9%
12 | CC1(C)CCC(c2ccc(Cl)cc2)=C(CN2CCN(c3ccc(C(=O)NS(=O)(=O)c4ccc(N[C@H](CCN5CCOCC5)CSc5ccccc5)c(S(=O)(=O)C(F)(F)F)c4)cc3)CC2)C1 + COc1ccc(Cl)c(Nc2nc3ccccc3nc2NS(=O)(=O)c2cccc(NC(=O)C(C)(C)N)c2)c1 [XL147] (first compound 0.4 µM, partner dose 0.8 µM) | 403% | 125% | 369% | 206% | 133% | 95.3%
13 | C[C@@H](N)c1ccc(C(=O)Nc2ccnc3[nH]ccc23)cc1 + Cc1nc(Nc2ncc(C(=O)Nc3c(C)cccc3Cl)s2)cc(N2CCN(CCO)CC2)n1 [dasatanib] (first compound 0.4 µM, partner dose 0.004 µM) | 81.3% | 158% | 202% | 260% | 115% | 51.7%
14 | C[C@@H](N)c1ccc(C(=O)Nc2ccnc3[nH]ccc23)cc1 + OCCn1cc(-c2cnc3nnn(Cc4ccc5ncccc5c4)c3n2)cn1 [PF04217903] (first compound 0.4 µM, partner dose 1 µM) | 58.7% | 219% | 124% | 51.1% | 112% | 73.1%
15 | CC(=O)O[C@@]12CO[C@@H]1C[C@H](O)[C@@]1(C)C(=O)[C@H](O)C3=C(C)[C@@H](OC(=O)[C@H](O)[C@@H](NC(=O)OC(C)(C)C)c4ccccc4)C[C@@](O)([C@@H](OC(=O)c4ccccc4)[C@H]21)C3(C)C [Docetaxel] + CO[C@H]1C[C@@H]2CC[C@@H](C)[C@@](O)(O2)C(=O)C(=O)N2CCCC[C@H]2C(=O)O[C@H]([C@H](C)C[C@@H]2CC[C@@H](OCCO)[C@H](OC)C2)CC(=O)[C@H](C)/C=C(\C)[C@@H](O)[C@@H](OC)C(=O)[C@H](C)C[C@H](C)/C=C/C=C/C=C/1C [everolimus] (first compound 0.0001 µM, partner dose 0.02 µM) | 729% | 591% | 181% | 300% | 129% | 185%
16 | CCCCCCCCc1ccc(CCC(N)(CO)CO)cc1 [fingolimod] + CCN(CC)CCCCNc1ncc2cc(-c3cc(OC)cc(OC)c3)c(NC(=O)NC(C)(C)C)nc2n1 [PD173074] (first compound 2 µM, partner dose 0.1 µM) | 191% | 256% | 96.3% | 111% | 100% | 48.6%
17 | Cn1sc(=O)n(Cc2ccccc2)c1=O + C[C@]1(c2nc3c(C(N)=O)cccc3[nH]2)CCCN1 [Veliparib] (first compound 0.4 µM, partner dose 1.4 µM) | 82.4% | 72% | 109% | 83.6% | 67.5% | 131%
18 | CS(=O)(=O)c1ccc(C(=O)Nc2ccc(Cl)c(-c3ccccn3)c2)c(Cl)c1 [vismodegib] + O=C(O)c1ccc(-c2c[nH]c3ncc(-c4ccccc4)cc23)cc1C1CCCC1 [GSK650394] (first compound 1 µM, partner dose 0.16 µM) | 62% | 77.4% | 93.8% | 57.3% | 81.3% | 55.9%
19 | C[C@@H](N)c1ccc(C(=O)Nc2ccnc3[nH]ccc23)cc1 + Cc1cc([N+](=O)[O-])ccc1NS(=O)(=O)c1cc(Cl)ccc1Cl [FH535] (first compound 0.4 µM, partner dose 1 µM) | 169% | 97.8% | 110% | 63.4% | 82.9% | 94.1%
20 | COc1ccc(C2=N[C@@H](c3ccc(Cl)cc3)[C@@H](c3ccc(Cl)cc3)N2C(=O)N2CCNC(=O)C2)c(OC(C)C)c1 [Nutlin-3] + CCCCCCCCc1ccc(CCC(N)(CO)CO)cc1 [fingolimod] (first compound 0.1 µM, partner dose 2 µM) | 135% | 91.9% | 117% | 48.3% | 107% | 169%
21 | COc1ccc(C2=N[C@@H](c3ccc(Cl)cc3)[C@@H](c3ccc(Cl)cc3)N2C(=O)N2CCNC(=O)C2)c(OC(C)C)c1 [Nutlin-3] + C=C(c1ccc(C(=O)O)cc1)c1cc2c(cc1C)C(C)(C)CCC2(C)C [Bexarotene] (first compound 0.1 µM, partner dose 2 µM) | 69.4% | 169% | 112% | 52.8% | 106% | 46.6%
22 | CCCCCCCCc1ccc(CCC(N)(CO)CO)cc1 [fingolimod] + CO[C@@H]1[C@H](N(C)C(=O)c2ccccc2)C[C@H]2O[C@]1(C)n1c3ccccc3c3c4c(c5c6ccccc6n2c5c31)C(=O)NC4 [Midostaurin] (first compound 2 µM, partner dose 0.08 µM) | 35.1% | 148% | 131% | 69.4% | 217% | 217%
23 | CS(=O)(=O)c1ccc(C(=O)Nc2ccc(Cl)c(-c3ccccn3)c2)c(Cl)c1 [vismodegib] + Nc1ccn([C@@H]2O[C@H](CO)[C@@H](O)C2(F)F)c(=O)n1 [gemcitabine] (first compound 1 µM, partner dose 0.0004 µM) | 73.6% | 55.9% | 98.5% | 82.6% | 111% | 20.1%
24 | CS(=O)(=O)c1ccc(C(=O)Nc2ccc(Cl)c(-c3ccccn3)c2)c(Cl)c1 [vismodegib] + COc1ccc(-c2ccc3c(N4CCOCC4)nc(N4C[C@@H](C)O[C@@H](C)C4)nc3n2)cc1CO [KU0063794] (first compound 1 µM, partner dose 0.02 µM) | 99.3% | 35.6% | 81.5% | 135% | 282% | 31.8%

Limited to cleaved PARP positive nuclei fraction [6], for some of the entries so far:
Row	Structure (SMILES)	cleaved PARP positive nuclei fraction [6]
7	C[C@]1(O)C[C@@H](c2nc(-c3ccc4ccc(-c5ccccc5)nc4c3)c3c(N)nccn32)C1 + CC1(C)NC(=O)N(c2ccc([N+](=O)[O-])c(C(F)(F)F)c2)C1=O [nilutamide] (first compound 0.4 µM, partner dose 1 µM)	136%
13	C[C@@H](N)c1ccc(C(=O)Nc2ccnc3[nH]ccc23)cc1 + Cc1nc(Nc2ncc(C(=O)Nc3c(C)cccc3Cl)s2)cc(N2CCN(CCO)CC2)n1 [dasatanib] (first compound 0.4 µM, partner dose 0.004 µM)	51.7%
